Assay results taken from the supplement of paper PMC8728848.
This is one part of the list.

How the values were obtained:
Assay in all cases: glycan array binding signal (z-score within array); higher = stronger binding
Details in all cases: glycan notation: IUPAC condensed, linker removed
[1] = molecular target: Neu5Ac(a2-6)Gal(b1-4)GlcNAc(b1-3)Gal(b1-4)GlcNAc(b1-3)Gal(b1-4)GlcNAc
Summary of the method: (§1)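 Columns mapping to the same glycan were averaged after glycan names were converted to IUPAC-condensed notation. The data come from 3228 arrays in the Consortium for Functional Glycomics database, limited to those with an available protein sequence. Binding is reported as a within-array Z-score averaged across arrays of one protein sequence and across linkers.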

[2] = molecular target: Neu5Ac(a2-6)Gal(b1-4)GlcNAc(b1-3)Gal(b1-4)GlcNAc(b1-3)Gal(b1-4)GlcNAc(b1-2)Man(a1-3)[Neu5Ac(a2-6)Gal(b1-4)GlcNAc(b1-3)Gal(b1-4)GlcNAc(b1-3)Gal(b1-4)GlcNAc(b1-2)Man(a1-6)]GalNAc
Summary of the method: as §1

[3] = molecular target: Neu5Ac(a2-6)Gal(b1-4)GlcNAc(b1-3)Gal(b1-4)GlcNAc(b1-3)GalNAc
Summary of the method: as §1

[4] = molecular target: Neu5Ac(a2-6)Gal(b1-4)GlcNAc(b1-3)Gal(b1-4)GlcNAc(b1-3)[Neu5Ac(a2-6)Gal(b1-4)GlcNAc(b1-3)Gal(b1-4)GlcNAc(b1-6)]GalNAc
Summary of the method: as §1

[5] = molecular target: Neu5Ac(a2-6)Gal(b1-4)GlcNAc(b1-3)Gal(b1-4)GlcNAc(b1-6)[Gal(b1-3)]GalNAc
Summary of the method: as §1

[6] = molecular target: Neu5Ac(a2-6)Gal(b1-4)GlcNAc(b1-3)Gal(b1-4)[Fuc(a1-3)]GlcNAc(b1-3)Gal(b1-4)[Fuc(a1-3)]GlcNAc
Summary of the method: as §1

[7] = molecular target: Neu5Ac(a2-6)Gal(b1-4)GlcNAc(b1-3)GalNAc
Summary of the method: as §1

[8] = molecular target: Neu5Ac(a2-6)Gal(b1-4)GlcNAc(b1-3)[Neu5Ac(a2-6)Gal(b1-4)GlcNAc(b1-6)]GalNAc
Summary of the method: as §1

[9] = molecular target: Neu5Ac(a2-6)Gal(b1-4)GlcNAc(b1-6)GalNAc
Summary of the method: as §1

[10] = molecular target: Neu5Ac(a2-6)Gal(b1-4)GlcNAc(b1-6)[Gal(b1-3)GlcNAc(b1-3)]Gal(b1-4)Glc
Summary of the method: as §1

[11] = molecular target: Neu5Ac(a2-6)Gal(b1-4)GlcNAc(b1-6)[Gal(b1-3)]GalNAc
Summary of the method: as §1

[12] = molecular target: Neu5Ac(a2-6)Gal(b1-4)GlcNAc6S
Summary of the method: as §1

Neu5Ac(a2-6)GalNAc = molecular target: Neu5Ac(a2-6)GalNAc
Summary of the method: as §1

[13] = molecular target: Neu5Ac(a2-6)GalNAc(b1-4)GlcNAc
Summary of the method: as §1

[14] = molecular target: Neu5Ac(a2-6)GalNAc(b1-4)GlcNAc6S
Summary of the method: as §1

[15] = molecular target: Neu5Ac(a2-6)GlcNAc(b1-4)GlcNAc
Summary of the method: as §1

[16] = molecular target: Neu5Ac(a2-6)GlcNAc(b1-4)GlcNAc(b1-4)GlcNAc
Summary of the method: as §1

Neu5Ac(a2-8)Neu5Ac = molecular target: Neu5Ac(a2-8)Neu5Ac
Summary of the method: as §1

[17] = molecular target: Neu5Ac(a2-8)Neu5Ac(a2-3)Gal(b1-3)GalNAc(b1-4)[Neu5Ac(a2-3)]Gal(b1-4)Glc
Summary of the method: as §1

[18] = molecular target: Neu5Ac(a2-8)Neu5Ac(a2-3)Gal(b1-3)GalNAc(b1-4)[Neu5Ac(a2-8)Neu5Ac(a2-3)]Gal(b1-4)Glc
Summary of the method: as §1

[19] = molecular target: Neu5Ac(a2-8)Neu5Ac(a2-3)Gal(b1-4)Glc
Summary of the method: as §1

[20] = molecular target: Neu5Ac(a2-8)Neu5Ac(a2-3)Gal(b1-4)GlcNAc
Summary of the method: as §1

[21] = molecular target: Neu5Ac(a2-8)Neu5Ac(a2-3)[Gal(b1-3)GalNAc(b1-4)]Gal(b1-4)Glc
Summary of the method: as §1

[22] = molecular target: Neu5Ac(a2-8)Neu5Ac(a2-3)[GalNAc(b1-4)]Gal(b1-4)Glc
Summary of the method: as §1

[23] = molecular target: Neu5Ac(a2-8)Neu5Ac(a2-8)Neu5Ac
Summary of the method: as §1

[24] = molecular target: Neu5Ac(a2-8)Neu5Ac(a2-8)Neu5Ac(a2-3)Gal(b1-4)Glc
Summary of the method: as §1

[25] = molecular target: Neu5Ac(a2-8)Neu5Ac(a2-8)Neu5Ac(a2-3)[Gal(b1-3)GalNAc(b1-4)]Gal(b1-4)Glc
Summary of the method: as §1

[26] = molecular target: Neu5Ac(a2-8)Neu5Ac(a2-8)Neu5Ac(a2-3)[GalNAc(b1-4)]Gal(b1-4)Glc
Summary of the method: as §1

[27] = molecular target: Neu5Ac(a2-8)Neu5Ac(a2-8)Neu5Ac(a2-8)Neu5Ac(a2-3)[GalNAc(b1-4)]Gal(b1-4)Glc
Summary of the method: as §1

[28] = molecular target: Neu5Ac(a2-8)Neu5Gc(a2-3)Gal(b1-4)GlcNAc
Summary of the method: as §1

[29] = molecular target: Neu5Ac(b2-6)Gal(b1-4)GlcNAc
Summary of the method: as §1

Neu5Ac(b2-6)GalNAc = molecular target: Neu5Ac(b2-6)GalNAc
Summary of the method: as §1

[30] = molecular target: Neu5Ac9Ac(a2-3)Gal(b1-3)GlcNAc
Summary of the method: as §1

[31] = molecular target: Neu5Ac9Ac(a2-3)Gal(b1-4)GlcNAc
Summary of the method: as §1

[32] = molecular target: Neu5Ac9Ac(a2-6)Gal(b1-4)GlcNAc
Summary of the method: as §1

[33] = molecular target: Neu5Gc(a2-3)Gal(b1-3)GlcNAc
Summary of the method: as §1

[34] = molecular target: Neu5Gc(a2-3)Gal(b1-3)[Fuc(a1-4)]GlcNAc
Summary of the method: as §1

Neu5Gc(a2-3)Gal(b1-4)Glc = molecular target: Neu5Gc(a2-3)Gal(b1-4)Glc
Summary of the method: as §1

[35] = molecular target: Neu5Gc(a2-3)Gal(b1-4)GlcNAc
Summary of the method: as §1

[36] = molecular target: Neu5Gc(a2-3)Gal(b1-4)GlcNAc(b1-3)Gal(b1-4)GlcNAc(b1-2)Man(a1-3)[Neu5Gc(a2-3)Gal(b1-4)GlcNAc(b1-3)Gal(b1-4)GlcNAc(b1-2)Man(a1-6)]Man(b1-4)GlcNAc(b1-4)GlcNAc
Summary of the method: as §1

[37] = molecular target: Neu5Gc(a2-3)Gal(b1-4)[Fuc(a1-3)]GlcNAc
Summary of the method: as §1

[38] = molecular target: Neu5Gc(a2-6)Gal(b1-4)GlcNAc
Summary of the method: as §1

Neu5Gc(a2-6)GalNAc = molecular target: Neu5Gc(a2-6)GalNAc
Summary of the method: as §1

[39] = molecular target: Neu5Gc(a2-8)Neu5Ac(a2-3)Gal(b1-4)GlcNAc
Summary of the method: as §1

[40] = molecular target: Neu5Gc(a2-8)Neu5Gc(a2-3)Gal(b1-4)GlcNAc
Summary of the method: as §1

B1: CD34 (Homo sapiens), P28906 (protein)
chain: MGSSHHHHHHSSGLVPRGSHMSTSLATSPTKPYTSSSPILSDIKAEIKCSGIREVKLTQGICLEQNKTSSCAEFKKDRGEGLARVLCGEEQADADAGAQVCSLLLAQSEVRPQCLLLVLANRTEISSKLQLMKKHQSDLKKLGILDFTEQDVASHQSYSQKT
[1]
  glycan array binding signal (z-score): 0.533
[2]
  glycan array binding signal (z-score): 1.44
[3]
  glycan array binding signal (z-score): 0.803
[4]
  glycan array binding signal (z-score): 0.8
[5]
  glycan array binding signal (z-score): -0.659
[6]
  glycan array binding signal (z-score): -0.272
[7]
  glycan array binding signal (z-score): -0.496
[8]
  glycan array binding signal (z-score): -0.477
[9]
  glycan array binding signal (z-score): 1.05
[10]
  glycan array binding signal (z-score): -0.278
[11]
  glycan array binding signal (z-score): 0.485
[12]
  glycan array binding signal (z-score): -0.077
Neu5Ac(a2-6)GalNAc
  glycan array binding signal (z-score): -0.596
[13]
  glycan array binding signal (z-score): -0.952
[14]
  glycan array binding signal (z-score): 0.66
[15]
  glycan array binding signal (z-score): 0.736
[16]
  glycan array binding signal (z-score): -1.17
Neu5Ac(a2-8)Neu5Ac
  glycan array binding signal (z-score): -0.312
[17]
  glycan array binding signal (z-score): -1.13
[18]
  glycan array binding signal (z-score): 0.671
[19]
  glycan array binding signal (z-score): -0.762
[20]
  glycan array binding signal (z-score): -0.699
[21]
  glycan array binding signal (z-score): -0.858
[22]
  glycan array binding signal (z-score): -0.229
[23]
  glycan array binding signal (z-score): 0.347
[24]
  glycan array binding signal (z-score): 0.301
[25]
  glycan array binding signal (z-score): -0.565
[26]
  glycan array binding signal (z-score): 0.111
[27]
  glycan array binding signal (z-score): 0.217
[28]
  glycan array binding signal (z-score): -0.375
[29]
  glycan array binding signal (z-score): -0.354
Neu5Ac(b2-6)GalNAc
  glycan array binding signal (z-score): -0.749
[30]
  glycan array binding signal (z-score): 0.396
[31]
  glycan array binding signal (z-score): -0.145
[32]
  glycan array binding signal (z-score): 1.28
[33]
  glycan array binding signal (z-score): 0.381
[34]
  glycan array binding signal (z-score): 0.294
Neu5Gc(a2-3)Gal(b1-4)Glc
  glycan array binding signal (z-score): 0.439
[35]
  glycan array binding signal (z-score): -0.844
[36]
  glycan array binding signal (z-score): 0.16
[37]
  glycan array binding signal (z-score): 1.71
[38]
  glycan array binding signal (z-score): -0.001
Neu5Gc(a2-6)GalNAc
  glycan array binding signal (z-score): -0.809
[39]
  glycan array binding signal (z-score): 0.077
[40]
  glycan array binding signal (z-score): -0.141
